Results as given in the supplement of paper PMC6411743.
± gives the standard deviation of the averaged measurements. Some of the results follow.

The chains behind the UniProt entries cited, without tags or fusion partners. Where a name states a change or a piece, a line headed by the entry shows the natural chain unless it says otherwise.
UniProt Q9NUJ3: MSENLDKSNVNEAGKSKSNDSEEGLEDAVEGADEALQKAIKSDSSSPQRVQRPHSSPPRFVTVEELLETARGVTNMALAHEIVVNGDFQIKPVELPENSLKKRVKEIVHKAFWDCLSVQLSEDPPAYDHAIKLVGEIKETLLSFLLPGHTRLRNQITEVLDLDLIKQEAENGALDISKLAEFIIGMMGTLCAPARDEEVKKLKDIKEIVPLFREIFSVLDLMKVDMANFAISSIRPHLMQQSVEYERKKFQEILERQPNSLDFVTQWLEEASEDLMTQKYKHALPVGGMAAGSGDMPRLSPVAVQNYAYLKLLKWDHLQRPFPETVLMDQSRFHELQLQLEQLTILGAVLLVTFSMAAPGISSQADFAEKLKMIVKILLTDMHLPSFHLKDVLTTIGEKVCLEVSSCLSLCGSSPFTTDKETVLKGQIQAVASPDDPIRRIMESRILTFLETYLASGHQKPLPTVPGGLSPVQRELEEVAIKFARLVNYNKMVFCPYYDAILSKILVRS
UniProt P43250, whole entry, looked up: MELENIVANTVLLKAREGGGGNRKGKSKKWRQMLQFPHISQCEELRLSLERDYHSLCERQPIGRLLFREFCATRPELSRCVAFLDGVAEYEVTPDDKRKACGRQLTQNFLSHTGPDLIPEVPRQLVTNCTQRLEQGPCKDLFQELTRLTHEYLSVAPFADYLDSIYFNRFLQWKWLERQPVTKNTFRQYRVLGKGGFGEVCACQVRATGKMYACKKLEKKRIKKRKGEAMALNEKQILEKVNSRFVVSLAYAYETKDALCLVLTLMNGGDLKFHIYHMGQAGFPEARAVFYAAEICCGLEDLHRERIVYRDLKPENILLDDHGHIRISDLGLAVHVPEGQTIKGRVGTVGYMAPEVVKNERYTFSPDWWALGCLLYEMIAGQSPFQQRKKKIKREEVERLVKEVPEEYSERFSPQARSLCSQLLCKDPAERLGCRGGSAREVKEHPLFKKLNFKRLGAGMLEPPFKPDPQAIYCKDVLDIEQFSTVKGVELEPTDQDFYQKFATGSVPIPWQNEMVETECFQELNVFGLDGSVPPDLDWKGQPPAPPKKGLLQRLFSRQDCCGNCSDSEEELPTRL
UniProt Q9Y4C1: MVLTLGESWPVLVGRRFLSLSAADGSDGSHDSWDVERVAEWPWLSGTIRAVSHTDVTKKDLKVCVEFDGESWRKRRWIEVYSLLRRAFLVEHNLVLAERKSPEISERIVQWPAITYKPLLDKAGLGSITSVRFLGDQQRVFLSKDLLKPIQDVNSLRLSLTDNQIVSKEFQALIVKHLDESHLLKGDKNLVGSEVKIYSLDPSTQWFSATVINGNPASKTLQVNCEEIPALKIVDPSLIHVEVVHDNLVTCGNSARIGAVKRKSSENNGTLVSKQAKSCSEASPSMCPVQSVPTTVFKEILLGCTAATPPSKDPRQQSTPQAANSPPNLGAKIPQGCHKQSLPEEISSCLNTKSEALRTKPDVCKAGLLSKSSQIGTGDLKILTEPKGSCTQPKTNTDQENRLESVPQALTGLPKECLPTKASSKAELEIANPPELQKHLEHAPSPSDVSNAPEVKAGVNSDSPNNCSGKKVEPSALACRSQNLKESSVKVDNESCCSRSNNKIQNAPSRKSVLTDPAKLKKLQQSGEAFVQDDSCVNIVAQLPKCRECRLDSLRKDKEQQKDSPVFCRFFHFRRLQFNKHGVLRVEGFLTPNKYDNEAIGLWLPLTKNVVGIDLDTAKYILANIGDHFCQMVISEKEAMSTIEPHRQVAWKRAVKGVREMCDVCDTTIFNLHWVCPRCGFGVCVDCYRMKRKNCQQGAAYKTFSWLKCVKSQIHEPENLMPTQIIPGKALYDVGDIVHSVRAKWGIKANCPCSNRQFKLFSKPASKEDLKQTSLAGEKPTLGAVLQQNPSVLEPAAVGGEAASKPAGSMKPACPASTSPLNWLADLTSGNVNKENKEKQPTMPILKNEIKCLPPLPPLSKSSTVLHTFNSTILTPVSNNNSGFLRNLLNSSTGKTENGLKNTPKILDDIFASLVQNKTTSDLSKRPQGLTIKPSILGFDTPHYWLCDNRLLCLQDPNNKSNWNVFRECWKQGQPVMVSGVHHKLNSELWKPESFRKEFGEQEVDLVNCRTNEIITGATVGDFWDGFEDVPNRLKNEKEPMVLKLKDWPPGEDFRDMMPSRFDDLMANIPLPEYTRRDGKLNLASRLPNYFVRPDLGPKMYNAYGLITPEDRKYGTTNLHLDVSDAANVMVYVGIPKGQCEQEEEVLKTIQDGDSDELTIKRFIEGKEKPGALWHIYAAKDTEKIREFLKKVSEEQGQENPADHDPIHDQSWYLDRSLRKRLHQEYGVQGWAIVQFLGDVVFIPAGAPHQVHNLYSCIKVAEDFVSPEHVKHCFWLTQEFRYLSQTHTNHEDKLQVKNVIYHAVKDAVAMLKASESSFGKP
UniProt Q9Y2W6: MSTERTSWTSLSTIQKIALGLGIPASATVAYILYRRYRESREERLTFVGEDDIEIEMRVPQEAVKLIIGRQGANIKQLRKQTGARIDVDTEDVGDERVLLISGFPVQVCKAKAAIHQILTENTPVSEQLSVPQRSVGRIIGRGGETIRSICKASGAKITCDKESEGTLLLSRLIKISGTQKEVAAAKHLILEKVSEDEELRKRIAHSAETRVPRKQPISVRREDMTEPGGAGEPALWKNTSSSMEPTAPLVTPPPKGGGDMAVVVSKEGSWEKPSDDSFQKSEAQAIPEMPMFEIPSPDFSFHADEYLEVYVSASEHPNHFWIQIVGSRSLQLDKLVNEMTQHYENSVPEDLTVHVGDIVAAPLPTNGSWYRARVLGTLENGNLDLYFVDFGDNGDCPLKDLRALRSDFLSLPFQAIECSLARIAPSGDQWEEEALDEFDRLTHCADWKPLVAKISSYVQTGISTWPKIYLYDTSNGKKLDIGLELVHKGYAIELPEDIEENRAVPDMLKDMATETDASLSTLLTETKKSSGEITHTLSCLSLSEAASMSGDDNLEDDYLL

Compound: Nc1nc2c(ncn2[C@@H]2O[C@H](COP(=O)(O)OP(=O)(O)OP(=O)(O)O)[C@@H](O)[C@H]2O)c(=O)[nH]1 [guanosine triphosphate]
Test: NP40-soluble protein abundance relative to vehicle (solubility fold change) (ratio); higher = more soluble protein in presence of GTP
Description: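 Solubility proteome profiling in Jurkat crude lysate. Lysate was treated with Mg-GTP (0.1-10 mM) for 10 min at room temperature and 3 min at 37 °C, then solubilised with 0.8% NP40 and benzonase, followed by ultracentrifugation. Proteins were quantified by TMT10 LC-MS/MS; the value is the NP40-soluble abundance relative to the NP40-processed vehicle, from 3 independent experiments.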

## E9PJ55 and related entries (UniProt Q9NUJ3)
concentration: 0.1mM
  NP40-soluble protein abundance: 1.07 ± 0.067
concentration: 0.5mM
  NP40-soluble protein abundance: 1.08 ± 0.073
concentration: 1mM
  NP40-soluble protein abundance: 1.08 ± 0.064
concentration: 2mM
  NP40-soluble protein abundance: 1.03 ± 0.013
concentration: 4mM
  NP40-soluble protein abundance: 1.06 ± 0.052
concentration: 6mM
  NP40-soluble protein abundance: 1.02 ± 0.044
concentration: 8mM
  NP40-soluble protein abundance: 0.977 ± 0.11
concentration: 10mM
  NP40-soluble protein abundance: 0.958 ± 0.13

## F8W9W2 and related entries (UniProt P43250)
concentration: 0.1mM
  NP40-soluble protein abundance: 1.06 ± 0.059
concentration: 0.5mM
  NP40-soluble protein abundance: 1.11 ± 0.026
concentration: 1mM
  NP40-soluble protein abundance: 1.08 ± 0.053
concentration: 2mM
  NP40-soluble protein abundance: 1.1 ± 0.036
concentration: 4mM
  NP40-soluble protein abundance: 1.11 ± 0.035
concentration: 6mM
  NP40-soluble protein abundance: 1.11 ± 0.06
concentration: 8mM
  NP40-soluble protein abundance: 1.1 ± 0.03
concentration: 10mM
  NP40-soluble protein abundance: 1.09 ± 0.069

## E7EVY0 and related entries (UniProt Q15070)
concentration: 0.1mM
  NP40-soluble protein abundance: 1.07 ± 0.039
concentration: 0.5mM
  NP40-soluble protein abundance: 0.993 ± 0.033
concentration: 1mM
  NP40-soluble protein abundance: 1.05 ± 0.033
concentration: 2mM
  NP40-soluble protein abundance: 1.04 ± 0.06
concentration: 4mM
  NP40-soluble protein abundance: 1.11 ± 0.086
concentration: 6mM
  NP40-soluble protein abundance: 1.02 ± 0.078
concentration: 8mM
  NP40-soluble protein abundance: 1.04 ± 0.066
concentration: 10mM
  NP40-soluble protein abundance: 0.979 ± 0.036

## F5H070 and related entries (UniProt Q9Y4C1)
concentration: 0.1mM
  NP40-soluble protein abundance: 1.03 ± 0.03
concentration: 0.5mM
  NP40-soluble protein abundance: 1.02 ± 0.039
concentration: 1mM
  NP40-soluble protein abundance: 0.987 ± 0.023
concentration: 2mM
  NP40-soluble protein abundance: 0.99 ± 0.029
concentration: 4mM
  NP40-soluble protein abundance: 0.987 ± 0.022
concentration: 6mM
  NP40-soluble protein abundance: 0.939 ± 0.053
concentration: 8mM
  NP40-soluble protein abundance: 0.954 ± 0.042
concentration: 10mM
  NP40-soluble protein abundance: 0.929 ± 0.029

## F6TB26 and related entries (UniProt Q9Y2W6)
concentration: 0.1mM
  NP40-soluble protein abundance: 0.988 ± 0.093
concentration: 0.5mM
  NP40-soluble protein abundance: 0.99 ± 0.1
concentration: 1mM
  NP40-soluble protein abundance: 0.971 ± 0.11
concentration: 2mM
  NP40-soluble protein abundance: 0.976 ± 0.14
concentration: 4mM
  NP40-soluble protein abundance: 0.923 ± 0.091
concentration: 6mM
  NP40-soluble protein abundance: 0.944 ± 0.11
concentration: 8mM
  NP40-soluble protein abundance: 0.959 ± 0.091
concentration: 10mM
  NP40-soluble protein abundance: 0.954 ± 0.076
